Results are given in words; binding and its absence hold for the method and conditions named. In cells and extracts the contact can be indirect. Some entries that bind do so weakly or less than the wild type.
Molecular target: FLAG-tagged importin-α5 (UniProt P52294)
Test: co-IP; anti-FLAG M2 magnetic beads; extracts of HEK 293T cells cotransfected with FLAG-tagged importin-α5 and YFP-tagged STAT1 or STAT1-Y701F; cells treated with IFN-β for 1 h; immunoblot

Chains of the proteins cited; added tags and fusions are not shown.
UniProt P52294: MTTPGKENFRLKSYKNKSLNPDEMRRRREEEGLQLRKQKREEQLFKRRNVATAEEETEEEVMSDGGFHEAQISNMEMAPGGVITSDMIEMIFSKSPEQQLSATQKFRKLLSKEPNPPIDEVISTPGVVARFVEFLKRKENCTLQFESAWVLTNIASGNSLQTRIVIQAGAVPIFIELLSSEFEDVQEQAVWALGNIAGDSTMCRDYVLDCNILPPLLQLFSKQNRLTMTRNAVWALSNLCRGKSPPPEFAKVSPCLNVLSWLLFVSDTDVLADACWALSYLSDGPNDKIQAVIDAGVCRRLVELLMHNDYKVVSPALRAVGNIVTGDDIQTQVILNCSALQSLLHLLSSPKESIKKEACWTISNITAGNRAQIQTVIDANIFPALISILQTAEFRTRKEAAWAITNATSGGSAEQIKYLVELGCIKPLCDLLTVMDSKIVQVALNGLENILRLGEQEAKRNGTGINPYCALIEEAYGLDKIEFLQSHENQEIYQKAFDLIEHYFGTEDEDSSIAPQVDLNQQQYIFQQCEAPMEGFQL
UniProt P52630: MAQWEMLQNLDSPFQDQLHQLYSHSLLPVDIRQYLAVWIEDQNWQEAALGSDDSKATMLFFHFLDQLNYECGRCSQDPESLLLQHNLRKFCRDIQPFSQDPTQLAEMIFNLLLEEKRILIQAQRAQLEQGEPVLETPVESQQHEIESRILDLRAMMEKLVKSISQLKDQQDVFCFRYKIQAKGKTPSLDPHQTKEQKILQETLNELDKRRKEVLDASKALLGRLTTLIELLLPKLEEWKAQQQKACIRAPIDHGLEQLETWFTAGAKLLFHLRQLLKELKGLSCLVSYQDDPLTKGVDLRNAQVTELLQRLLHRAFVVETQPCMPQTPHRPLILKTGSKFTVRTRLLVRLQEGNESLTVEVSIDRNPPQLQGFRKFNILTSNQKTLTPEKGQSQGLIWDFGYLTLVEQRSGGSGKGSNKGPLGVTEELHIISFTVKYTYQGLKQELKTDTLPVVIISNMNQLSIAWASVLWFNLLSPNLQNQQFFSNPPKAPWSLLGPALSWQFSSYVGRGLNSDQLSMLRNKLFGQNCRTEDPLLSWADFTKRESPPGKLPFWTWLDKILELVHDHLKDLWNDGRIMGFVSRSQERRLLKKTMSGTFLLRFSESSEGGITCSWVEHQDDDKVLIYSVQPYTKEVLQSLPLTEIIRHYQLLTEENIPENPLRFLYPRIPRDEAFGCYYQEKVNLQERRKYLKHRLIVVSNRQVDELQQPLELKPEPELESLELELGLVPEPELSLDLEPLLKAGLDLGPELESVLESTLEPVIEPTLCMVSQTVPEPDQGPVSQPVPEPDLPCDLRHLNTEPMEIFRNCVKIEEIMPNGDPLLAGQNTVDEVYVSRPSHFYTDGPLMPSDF

- binding: binds
Substance: endogenous STAT2, activated (IFN-β-treated HEK 293T cells) (from UniProt P52630 1-851)

— PMC5079630
